“And” between values parts separate entries of the source, which are not always exact repeats. Equal entries are not always repeated. The inconclusive results got no clear call from the source; some entries with a clear call stand among them for comparison. Potencies beside an inconclusive call are fits to weak or partial responses and may not hold up. A structure can be active in one record and inactive in another. The source made the active and inactive calls. The call rests on the fitted dose curve; in most records, active means well fitted activation curve with a large enough effect; inconclusive means small, poorly fitted or top-dose-only effect, or effect the other way; inactive means flat fitted curve, though single readings scatter.
molecular target: Pyruvate kinase PKM (Homo sapiens) (UniProt P14618); test: Secondary LDH Assay for Activators of Human Pyruvate Kinase M2 isoform: for Probe SAR; conditions: purified hPK-M2, LDH-coupled NADH fluorescence kinetic; series mostly up to 58.4 µM; activation: at the top concentration
Source text: NIH Chemical Genomics Center [NCGC] Matthew G. Vander Heiden, M.D., Ph.D. [Harvard Medical School, 77 Avenue Louis Pasteur, Boston, MA 02115] NCGC Assay Overview: Human pyruvate kinase muscle 2 (hPK-M2)enzyme was supplied as a highly purified (>95% pure) preparation from Harvard Medical School and a secondary assay was used to evaluate compounds. This assay couples the formation of pyruvate from hPK-M2 using lactate dehydrogenase (LDH) and NADH. The depletion of NADH is followed in a fluorescent-based kinetic assay that follows the formation of pyruvate to lactate, as catalyzed LDH (described by Hannaert et al., 2002)1 Pyruvate kinase substrates, PEP and ADP, were present in the assay at 0.1 mM and 4 mM respectively. In this kinetic assay initial rates were determined by following the fluorescence of NADH depletion.
NCGC Assay Protocol Summary: Three uL of substrate mix (final concentration, 50 mM Tris-Cl pH 8.0, 200 mM KCl, 15 mM MgCl2, 0.1 mM PEP, 4.0 mM ADP, and 0.2 mM NADH) was dispensed into black-solid 1536 well plates. 23 nL of compounds were delivered by a pin tool and 1 uL of enzyme mix (final concentrations, 10 nM hPK-M2 and 1 uM of LDH) was added. Plates were immediately placed in ViewLux (Perkin Elmer) and NADH fluorescence was determined at 30 second exposure intervals for between 3 and 6 minutes. Data were normalized to the uninhibited and EC100 activation using known activators such as fructose-bis-phosphate.

The chains behind the UniProt entries cited, without tags or fusion partners.
UniProt P14618, whole entry, looked up: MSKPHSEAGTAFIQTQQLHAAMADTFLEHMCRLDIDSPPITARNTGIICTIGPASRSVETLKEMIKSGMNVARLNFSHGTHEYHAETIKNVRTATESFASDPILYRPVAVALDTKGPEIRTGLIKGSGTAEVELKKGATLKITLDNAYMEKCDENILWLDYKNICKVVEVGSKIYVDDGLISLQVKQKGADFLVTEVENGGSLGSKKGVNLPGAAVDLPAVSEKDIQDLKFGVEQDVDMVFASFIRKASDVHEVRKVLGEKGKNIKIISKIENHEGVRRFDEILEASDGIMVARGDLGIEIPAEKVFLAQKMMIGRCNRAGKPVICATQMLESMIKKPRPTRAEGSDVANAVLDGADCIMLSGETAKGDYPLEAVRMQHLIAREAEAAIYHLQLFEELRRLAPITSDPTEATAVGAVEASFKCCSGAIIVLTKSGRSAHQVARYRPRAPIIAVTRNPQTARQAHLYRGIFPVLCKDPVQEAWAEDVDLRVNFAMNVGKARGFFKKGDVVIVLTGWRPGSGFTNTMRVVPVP

| SMILES | Potency | activation |
| --- | --- | --- |
| Cc1ccc(NS(=O)(=O)c2cc3c(cc2Br)NC(=O)CO3)cc1C | inconclusive: 9.19 µM [rising, full curve, poor fit] | – |
| Cc1ccc(NS(=O)(=O)c2ccc3c(c2)C(Cl)(Cl)C(=O)N3)cc1C | inconclusive: 29.1 µM [rising, single point] | – |
| CNc1cc2c(cc1S(=O)(=O)Nc1ccc(C)c(C)c1)CCC(=O)N2 | inconclusive: 0.326 µM [rising, full curve] | – |
| Cc1ccc(-c2nc3cccc(C)n3c2Nc2ccc(F)cc2)o1 | inconclusive: 18.3 µM [inhibitor, partial curve] | – |
| COc1ccccc1NS(=O)(=O)c1ccc2c(c1)CCC(=O)N2 | – | inactive: 20.2% |
| CC(=O)N1CCc2cc(S(=O)(=O)Nc3ccc(C)c(C)c3)ccc21 | inconclusive: 3.26 µM [rising, full curve] | – |
| Cc1cc2c(s1)c1cnn(Cc3c(Cl)ccc(C)c3F)c(=O)c1n2C | active: 0.562 µM | – |
| O=S(=O)(c1ccc2c(c1)OCCO2)N1CCN(S(=O)(=O)c2c(F)cccc2F)CC1 | active: 5.8 µM | – |
| Cc1cc2c(s1)c1cnn(Cc3cc(F)c(F)cc3F)c(=O)c1n2C | active: 0.398 µM | – |
| Cc1ccc(NS(=O)(=O)c2ccc3c(c2)CCO3)cc1C | inconclusive: 23.1 µM [rising, partial curve, poor fit] | – |
| Cc1cccc(OC2=NS(=O)(=O)c3ccccc32)c1 | – | inactive: 2.22% |
| Cc1cc2c(s1)c1cnn(Cc3cc(F)ccc3F)c(=O)c1n2C | active: 0.447 µM | – |
| Cc1ccc(NS(=O)(=O)c2ccc3c(c2)CCC(=O)N3)cc1C | active: 0.146 µM | – |
| COc1ccccc1N1C(=O)c2ccccc2C1=O | – | inactive: 7.13% |
| Cc1ccc(NS(=O)(=O)c2ccc3c(c2)oc(=O)n3C)cc1C | – | inactive: 23.2% |
| Cc1ccc(Nc2c(-c3ccc(C)s3)nc3cccc(C)n23)cc1 | inconclusive: 9.19 µM [inhibitor, full curve] | – |
| Cc1ccc(Nc2c(-c3ccc(C)o3)nc3cccc(C)n23)cc1 | inconclusive: 10.3 µM [inhibitor, partial curve] | – |
| COc1ccc(-c2nc3ccccn3c2Nc2ccccc2C)cc1 | inconclusive: 9.19 µM [inhibitor, full curve] | – |
| O=C1CCc2cc(S(=O)(=O)Nc3cccc(C(F)(F)F)c3)ccc2N1 | inconclusive: 8.19 µM [rising, partial curve] | – |
| O=C1CCc2cc(S(=O)(=O)Nc3ccc4c(c3)OCCO4)ccc2N1 | inconclusive: 16.3 µM [rising, partial curve] | – |

Entries listed so far that contain a furan ring, fused or not (2):

| SMILES | Potency | activation |
| --- | --- | --- |
| Cc1ccc(-c2nc3cccc(C)n3c2Nc2ccc(F)cc2)o1 | inconclusive: 18.3 µM [inhibitor, partial curve] | – |
| Cc1ccc(Nc2c(-c3ccc(C)o3)nc3cccc(C)n23)cc1 | inconclusive: 10.3 µM [inhibitor, partial curve] | – |

Additional entries follow.

| SMILES | Potency | activation |
| --- | --- | --- |
| Cc1ccc(NS(=O)(=O)c2ccc3c(c2)CC(=O)N3C)cc1C | inconclusive: 14.6 µM [rising, partial curve] | – |
| COc1cc(F)c(S(=O)(=O)N2CCCN(S(=O)(=O)c3cccc(N)c3)CC2)c(F)c1 | active: 1.83 µM | – |
| Cc1ccn2c(NCc3ccco3)c(-c3ccccc3)nc2c1 | inconclusive: 36.6 µM [inhibitor, single point] | – |
| Cc1ccc2nc(-c3ccc(C)o3)c(Nc3ccccc3)n2c1 | inconclusive: 8.19 µM [inhibitor, full curve] | – |
| O=C1CCc2cc(S(=O)(=O)Nc3ccc4ccccc4c3)ccc2N1 | inconclusive: 5.17 µM [rising, partial curve] | – |
| Cc1ccc(-c2nc3ccccn3c2Nc2ccccc2C)o1 | inconclusive: 7.3 µM [inhibitor, full curve] | – |
| Cc1ccc(NS(=O)(=O)c2cccc(F)c2)cc1C | – | inactive: 18.4% |
| Cc1ccc(NS(=O)(=O)c2ccc3ccccc3c2)cc1C | inconclusive: 20.6 µM [rising, partial curve] | – |
| Cc1ccc(NS(=O)(=O)c2cc3c(cc2F)NC(=O)CC3)cc1C | active: 2.59 µM | – |
| Cc1ccc(NS(=O)(=O)c2ccc3c(c2)N(C)C(=O)CO3)cc1C | active: 1.46 µM | – |
| Cc1cccc(NS(=O)(=O)c2ccc3c(c2)CCC(=O)N3)c1 | active: 1.83 µM | – |
| Cc1ccc(N(C)S(=O)(=O)c2ccc3c(c2)CCC(=O)N3)cc1C | – | inactive: 0.911% |
| Cc1ccc(NS(=O)(=O)c2ccc3c(c2)N(C)CCO3)cc1C | inconclusive: 16.3 µM [rising, partial curve] | – |
| Cc1ccc(NS(=O)(=O)c2ccc3c(ccn3C)c2)cc1C | inconclusive: 20.6 µM [rising, single point] | – |
| Cc1ccccc1NS(=O)(=O)c1ccc2c(c1)CCC(=O)N2 | active: 6.51 µM | – |
| COc1ccc(-c2nc3cccc(C)n3c2Nc2ccc(C)cc2)cc1 | inconclusive: 8.19 µM [inhibitor, partial curve] | – |
| Cc1ccc(Nc2c(-c3ccc(C)o3)nc3ccccn23)cc1 | inconclusive: 14.6 µM [inhibitor, partial curve] | – |
| Cc1cc2c(s1)c1cnn(Cc3ccccc3F)c(=O)c1n2C | inactive and active: 291 nM | – |
| O=C1CCc2cc(S(=O)(=O)Nc3cccc4ccccc34)ccc2N1 | inconclusive: 10.3 µM [rising, partial curve] | – |
| COc1cc(N2C(=O)c3ccccc3C2=O)c2ncccc2c1 | – | inactive: 4.6% |

Reference: PubChem BioAssay AID2576 (National Center for Advancing Translational Sciences (NCATS), 2010)
